Test: general procedure: Boc solid-phase peptide synthesis; Chloromethylated polystyrene resin crosslinked with 1% divinylbenzene (1.1 mmoles Cl/g)
Conditions: whole synthesis

## L-Cysteinyl-L-glutaminyl-L-histidyl-L phenylalanyl-D-arginyl-L-phenylalanyl-D-cysteinyl-cyclic (4-10) disulfide
  isolated mass: 318 mg
Scale 3.67 mmol
  isolated yield: 9.2%
